Data set [1] concerns volar cubital region. In words: feeling on use: moist feeling 3 minutes after application. The class given is in vivo, human. The conditions noted are these: number of subjects. On the procedure: Feeling on use of the dermatologic preparation related to this invention was evaluated. To 900 μl of the mixture of glycerol, ethanol, and water in the ratio of 1:2:2 (by volume), was added 100 μl of the above-mentioned oil, and the resultant mixture was applied and spread onto the volar cubital region. The moist feeling after 3 minutes was evaluated.

The test system of data set [2] is volar cubital region. In words: intensity of unpleasant odor at the applied region 1 hour after application. The class given is in vivo, human. The conditions noted are these: number of subjects. On the procedure: To 900 μl of the mixture of glycerol, ethanol, and water in the ratio of 1:2:2 (by volume), was added 100 μl of the above-mentioned oil, and the resultant mixture was applied and spread onto the volar cubital region. The moist feeling after 3 minutes was evaluated. Also the intensity of unpleasant odor at the region was evaluated 1 hour after application.

Take “1,3-dioctanoyl-2-eicosapentaenoyl glycerol [Example 2]”: in the data set with volar cubital region [1], the “Moist feeling: dry” value turned out to be 0 subjects, the “Moist feeling: moist” value was 5 subjects, the “Moist feeling: oily” value turned out to be 0 subjects and the “Moist feeling: tacky” value is listed as 0 subjects. In the data set on volar cubital region [2], the “Unpleasant odor: none” value is on record as 5, the “Unpleasant odor: slight” value is 0, the “Unpleasant odor: strong” value turned out to be 0 and the “Unpleasant odor: weak” value worked out at 0.

For the origin of these results see patent US20010033847A1, “DERMATOLOGIC PREPARATION” (priority 1996, published 2001).
